Measurements reported in PubChem BioAssay AID1439 (NMMLSC, 2008).
About 770 (0.35%) of roughly 220,000 compounds were called active. Inconclusive results, whose numbers are uncertain, are shown with a selection of clear calls. Rule as the data show it: active = binding response below about 49% or above about 150%; inconclusive = no clear call, values can overlap the other calls; inactive = in between.

Protein sequences, listed by entry. Tags and fused reporters are not part of them.
UniProt P09471, whole entry, looked up: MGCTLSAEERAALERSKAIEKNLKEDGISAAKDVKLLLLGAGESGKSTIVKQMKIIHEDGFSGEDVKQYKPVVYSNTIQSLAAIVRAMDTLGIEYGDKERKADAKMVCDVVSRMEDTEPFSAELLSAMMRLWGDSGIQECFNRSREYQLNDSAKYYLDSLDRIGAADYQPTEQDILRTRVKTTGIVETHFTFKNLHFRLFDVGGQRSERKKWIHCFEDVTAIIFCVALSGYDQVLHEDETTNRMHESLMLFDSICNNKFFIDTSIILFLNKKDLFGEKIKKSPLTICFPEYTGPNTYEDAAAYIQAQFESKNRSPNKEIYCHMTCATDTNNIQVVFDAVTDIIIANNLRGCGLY

Target: Guanine nucleotide-binding protein G(o) subunit alpha (Homo sapiens) (UniProt P09471)
Assay: RGS7-Galphao binding modulators, primary screen, biochemical, multiplexed bead flow cytometry (AID 1439);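 also: fluorescent Galphao held in activated GDP-AlF4 state binding bead-coupled RGS7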
Details: at 10 µM, actives lie on both sides

Row | Compound | binding response (% of control)
1 | O=C(CSC1CN(C(c2ccccc2)c2ccccc2)C1)N/N=C/c1ccccc1 | inconclusive: 114%
2 | O=C(CN1C(=O)c2ccccc2C1=O)Nc1nccs1 | inconclusive: 121%
3 | CCOc1ccc(OCC)c(NC(=O)CN2CCN(c3cccc(C)c3C)CC2)c1 | inactive: 99.1%
4 | COc1ccccc1C1CCN(c2cc(O)ccc2[N+](=O)[O-])CC1 | inconclusive: 109%
5 | Cc1ccc(-c2cc(C(=O)Nc3ccc(S(=O)(=O)N4CC(C)OC(C)C4)cc3)[nH]n2)c(O)c1 (stereo not given) | inconclusive: 113%
6 | Nc1nn2cc(-c3ccccc3)nc2c2ccccc12 | inconclusive: 85.9%
7 | CCOc1ccccc1/C=C/c1cc(C(=O)O)c2ccccc2n1 | inconclusive: 132%
8 | Cc1ccc(OCCNC(=O)C(=O)NCc2ccco2)cc1 | inconclusive: 73.6%
9 | S=C(NC1CCCCC1)NC1CC2C=CC1C2 (stereo not given) | inconclusive: 101%
10 | O=C(Nc1cc(=O)[nH]c2ncnn12)c1ccccc1F | inconclusive: 99.2%
11 | COc1ccccc1/C=N/NC(=O)c1ccc(-c2ccccc2)cc1 | inactive: 114%
12 | CCOC(=O)C1CCCN(C2CC(=O)N(c3ccccc3)C2=O)C1 (stereo not given) | inactive: 86.2%
13 | COc1ccc(N2CCN(c3ccc(C(N)=O)cc3[N+](=O)[O-])CC2)cc1 | inconclusive: 114%
14 | CC(C)COc1ccc(C(=O)N/C(=C/c2cccc([N+](=O)[O-])c2)C(=O)O)cc1 | inconclusive: 117%
15 | CCOC(=O)C1CCCN(C(=O)c2cc(-c3ccc(F)cc3)nc3ccccc23)C1 (stereo not given) | inactive: 104%
16 | COc1ccc(N/N=C(\C#N)C(=N)N2CCCCC2)cc1 | inconclusive: -44.4%
17 | Fc1cccc(Nc2ncnc3c2cnn3-c2ccccc2)c1 | inconclusive: 102%
18 | COc1ccc(NC(=O)c2ccc3nc[nH]c3c2)c(OC)c1 | inconclusive: 91.4%
19 | CC1(NC(=S)Nc2ccc3ccccc3c2)CCS(=O)(=O)C1 (stereo not given) | inconclusive: 91.8%
20 | COCCSc1ccccc1C(=O)Nc1ccc([N+](=O)[O-])cc1OC | inconclusive: 110%
21 | Cc1ccc(-c2ccc(CCC(=O)O)n2Cc2ccco2)cc1 | inactive: 100%
22 | CCOC(=O)C1C(c2cccnc2)NC(=O)NC1(O)C(F)(F)F (stereo not given) | inconclusive: 87%
23 | NC(=O)CCC(NS(=O)(=O)c1ccc(Cl)cc1)C(=O)NCc1ccc(Cl)cc1 (stereo not given) | inactive: 84.8%

Row | Compound | binding response (% of control)
24 | Cc1ccc(CNC(=O)C2CC3Cn4c(nc5cc(Cl)c(Cl)cc54)C3N2C)o1 (stereo not given) | inconclusive: 117%
25 | CCc1ccc(-c2cc(C(=O)NN3CCOCC3)c3ccccc3n2)s1 | inconclusive: 114%
26 | Cc1nn(-c2ccccc2)c2nc(N)c(C#N)c(-c3ccc(C(C)(C)C)cc3)c12 | inconclusive: 105%
27 | Cc1cccc(N=C2NC(=O)/C(=C/c3cccnc3)S2)c1C | inconclusive: 49.2%
28 | CC(=O)N(c1ccccc1)c1nc(/C=C/C(=O)O)cs1 | inconclusive: 97.9%
29 | COC(=O)C1C(C(=O)OC)C1(c1ccccc1)c1ccccc1 (stereo not given) | inconclusive: 95.9%
30 | CC(C)(C)c1cc(C(=O)NN)n(Cc2ccc(F)cc2)n1 | inconclusive: 64.5%
31 | Cc1cc(C)cc(NC(=O)Nc2cc(-c3ccccc3)nn2C)c1 | inconclusive: 109%
32 | O=C1CCC(=O)N(O)CCCCCNC(=O)CCC(=O)N(O)CCCCCNC(=O)CCC(=O)N(O)CCCCCN1 | inconclusive: -117%
33 | COC(=O)c1sc(-c2ccc(Cl)cc2)cc1N | inconclusive: 99.6%
34 | CC1(C)CC2(CCO1)C(Nc1ccccc1)=NC(=S)N2CC(N)=O (stereo not given) | inconclusive: 12.6%
35 | CCCC1=NN2C(=N)/C(=C\c3cc(C)n(Cc4ccccc4)c3C)C(=O)N=C2S1 | inconclusive: 86.1%
36 | CCn1c(=O)c(=O)[nH]c2cc(C(=O)N3CCN(Cc4ccc5c(c4)OCO5)CC3)ccc21 | inconclusive: 98.2%
37 | COc1cc(NCc2ccccc2O)c2ncccc2c1 | inconclusive: 123%
38 | COc1ccc(C(CCN2CCCC(C)C2)c2c(OC)cc(OC)c3c(C)cc(=O)oc23)cc1 (stereo not given) | inconclusive: 96.3%
39 | Cc1ccc(C(C)C)c(OCc2nn(CC(=O)c3ccc(OC(F)F)cc3)c3[n+]2CCCCC3)c1 | inconclusive: 89.9%
40 | O=C(COC(=O)c1ccc(CO)cc1)NCc1cccs1 | inactive: 98.4%
41 | CC(=O)SCC[N+](C)(C)C | inconclusive: -35.1%
42 | O=C(O)c1ccc(-c2nc3scc(-c4ccccc4)c3c(=O)[nH]2)cc1 | inconclusive: 51.9%
43 | CC(C)Oc1ccc(C2CC(=O)N(Nc3ccc([N+](=O)[O-])cc3[N+](=O)[O-])C2=O)cc1 (stereo not given) | inconclusive: 226%
44 | COc1ccc(OC)c2c1sc(=NC(=O)C1CCCCC1)n2C | inconclusive: 98.6%
45 | COC(=O)CNC(=O)CSc1ccccn1 | inconclusive: 106%
46 | NNc1nnnc2c1sc1nc(N3CCOCC3)c3c(c12)CCCC3 | inconclusive: 73.2%

Row | Compound | binding response (% of control)
47 | CCOC(=O)c1[nH]cnc1C(=O)Nc1cccc(OC)c1 | inconclusive: 107%
48 | Cc1ccc(SCCC(=O)OCC(=O)Nc2ccc(S(N)(=O)=O)cc2)cc1 | inconclusive: 227%
49 | CCN(CC)c1ccc(/C=N/NC(=O)c2cc(C)nc3ccccc23)cc1 | inconclusive: 104%
50 | CNC(=O)COC(=O)c1cc(-c2ccco2)nc2ccccc12 | inconclusive: -144%
51 | O=C(COC(=O)CCC(=O)c1ccc(Cl)cc1)NCc1ccco1 | inconclusive: 106%
52 | Cc1cccc(Cl)c1NC(=O)N1CCN(c2ccnc3cc(Cl)ccc23)CC1 | inconclusive: 94.5%
53 | COc1cc(C2OCC3C(c4cc(OC)c(OC)c(OC)c4)OCC23)cc(OC)c1OC (stereo not given) | inconclusive: 92.4%
54 | Clc1ccc(-c2nnnn2-c2ccc(Cl)cc2)cc1 | inconclusive: 145%
55 | C#Cc1ccc([C@@H]2C=C(C(=O)NC3CC3)O[C@H](OCC)[C@H]2CCCO)cc1 | inconclusive: 73.2%
56 | Nc1c(C(=O)O)sc2nc(-c3ccc(F)cc3)cc(-c3ccccc3)c12 | inconclusive: 92%
57 | Cc1cccc(C(=O)OCC(=O)NCc2cccs2)c1 | inconclusive: 91.2%
58 | O=C(OCc1ccccc1)C1=NNC2C(=O)N(Cc3ccccc3)C(=O)C12 (stereo not given) | inconclusive: 114%
59 | Cc1cc(S(=O)(=O)NCc2ccc(N3CCN(C)CC3)cc2)c(C)s1 | inconclusive: 81.5%
60 | COc1ccc(-n2c(-c3ccc(Cl)cc3)c[n+]3c2CCCCC3)cc1 | inconclusive: -65%
61 | COc1ccc(C(=O)O/N=C(\N)c2ccccn2)c(OC)c1 | inconclusive: 99.4%
62 | COc1ccc(NS(=O)(=O)c2ccc(N3CCOCC3)c(NC(=O)c3ccco3)c2)cc1 | inconclusive: 103%
63 | COc1ccccc1Nc1nc(N)nc(CN2CCC(Cc3ccccc3)CC2)n1 | active: 162% [activator]
64 | O=C(CSc1nnc(-c2ccc(S(=O)(=O)N3CCCC3)cc2)o1)NCc1ccccc1 | inactive: 101%
65 | CCc1ccc(C(=O)NNc2ccc(F)cc2F)cc1 | inconclusive: 71.9%
66 | CCOc1ccc2[nH]c(=O)c(C(c3nnnn3Cc3ccco3)N3CCCC(C)C3)cc2c1 (stereo not given) | inactive: 96.6%
67 | Cc1cc(=O)oc2cc(OCc3ccc(C(=O)OCC(=O)NC4CCS(=O)(=O)C4)cc3)ccc12 (stereo not given) | inconclusive: 121%
68 | Cc1ccc(O)c(C2=Nc3ccccc3C2(C)C)c1 | inconclusive: 54%
69 | CC(=O)OCCn1c2nc(=O)[nH]c(=O)c-2nc2cc(C)c(C)cc21 | inconclusive: 119%

Row | Compound | binding response (% of control)
70 | Cc1ccc(-c2nnc(SCC(=O)N/N=C/c3ccccc3C(=O)O)n2-c2ccc(Cl)cc2)cc1 | inconclusive: 99.7%
71 | Nc1ccc2nc(CCCO)[nH]c2c1 | inconclusive: 103%
72 | COC(=O)c1cc(NC(=O)CN2CCN(C(C)=O)CC2)cc(C(=O)OC)c1 | inconclusive: 99%
73 | Cc1cc(C(=O)O)ccc1-c1ccc(CO)o1 | inconclusive: 98.9%
74 | CC(C)S(=O)(=O)C/C(N)=N/OC(=O)c1cc(Cl)cc(Cl)c1 | inconclusive: 224%
75 | COc1cc(C(CCN2CCCC(C)C2)c2c(OC)cc(OC)c3c2OC(=O)CC3c2ccc(N(C)C)cc2)cc(OC)c1OC (stereo not given) | inconclusive: 115%
76 | CN1CCc2c(sc(N)c2C(=O)O)C1 | inconclusive: 93.2%
77 | Brc1ccc2[nH]c3c(c2c1)CCC3 | inconclusive: 232%
78 | COc1ccccc1NC(=O)C(=O)N/N=C/c1ccc([N+](=O)[O-])s1 | inconclusive: 96.9%
79 | Cc1onc(-c2c(Cl)cccc2Cl)c1C(=O)NNc1ccccc1 | inconclusive: 115%
80 | CC(C)Nc1c(N)c(=O)oc2ccccc12 | inactive: 104%
81 | COc1ccccc1C(=O)n1nc(-c2ccccc2)nc1N | inactive: 100%
82 | COc1cccc(-c2ccc(=O)n(CC(=O)Nc3ccc(S(=O)(=O)NCC(C)C)cc3)n2)c1 | inactive: 108%
83 | O=C(CSc1nc2ncc(Cl)cc2[nH]1)c1ccc2c(c1)OCO2 | inconclusive: 125%
84 | O=C1C=C(Nc2ccccc2)c2ccccc2C1=O | inconclusive: 115%
85 | Cc1ccc(S(=O)(=O)N2CCCN(c3nccc(C(F)(F)F)n3)CC2)cc1 | inconclusive: 89.8%
86 | COCCNC(=O)c1ccccc1NC(=O)c1ccccc1SC | inactive: 98%
87 | NC(=S)NN=C(Cc1ccccc1)Cc1ccccc1 | inactive: 102%
88 | CN(C1CCCCC1)S(=O)(=O)c1ccc(-c2ccccn2)s1 | inconclusive: 104%
89 | CCCCC#Cc1ccc(C(=O)NNC(=O)Nc2cc(Cl)cc(Cl)c2)o1 | inconclusive: 92.5%
90 | OCCNNC(=S)NC1CC2C=CC1C2 (stereo not given) | inconclusive: 107%

An excerpt from above in order of molecular weight, low to high.
Row | Compound | binding response (% of control)
76 | CN1CCc2c(sc(N)c2C(=O)O)C1 | inconclusive: 93.2%
90 | OCCNNC(=S)NC1CC2C=CC1C2 (stereo not given) | inconclusive: 107%
73 | Cc1cc(C(=O)O)ccc1-c1ccc(CO)o1 | inconclusive: 98.9%
77 | Brc1ccc2[nH]c3c(c2c1)CCC3 | inconclusive: 232%
81 | COc1ccccc1C(=O)n1nc(-c2ccccc2)nc1N | inactive: 100%
78 | COc1ccccc1NC(=O)C(=O)N/N=C/c1ccc([N+](=O)[O-])s1 | inconclusive: 96.9%
89 | CCCCC#Cc1ccc(C(=O)NNC(=O)Nc2cc(Cl)cc(Cl)c2)o1 | inconclusive: 92.5%
